Data reported in patent US20170089928A1 (SYSMEX, published 2017).
These are yes or no findings as the source states them, for the method shown. Some results given as binding are weak or reduced against the parent protein; the word gives no strength.

Chains of the proteins cited; added tags and fusions are not shown. Residues count along the entry.
UniProt P02769, residues 25-607: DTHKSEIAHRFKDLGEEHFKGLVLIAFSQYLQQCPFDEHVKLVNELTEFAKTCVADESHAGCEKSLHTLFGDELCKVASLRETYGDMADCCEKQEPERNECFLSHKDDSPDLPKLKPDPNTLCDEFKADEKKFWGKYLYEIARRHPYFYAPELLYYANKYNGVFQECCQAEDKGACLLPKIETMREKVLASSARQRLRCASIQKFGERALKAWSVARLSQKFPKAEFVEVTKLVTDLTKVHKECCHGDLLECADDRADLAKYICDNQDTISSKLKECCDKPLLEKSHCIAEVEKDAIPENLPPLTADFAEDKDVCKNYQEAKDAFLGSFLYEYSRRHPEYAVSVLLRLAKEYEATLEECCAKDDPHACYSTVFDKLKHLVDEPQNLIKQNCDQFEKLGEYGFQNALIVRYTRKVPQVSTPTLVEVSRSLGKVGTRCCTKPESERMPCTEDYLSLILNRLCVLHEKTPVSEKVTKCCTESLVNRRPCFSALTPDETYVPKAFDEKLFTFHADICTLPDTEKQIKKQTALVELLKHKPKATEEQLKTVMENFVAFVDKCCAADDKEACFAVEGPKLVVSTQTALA

How the values were obtained:
[1] = target: T1, partial dynorphin A peptide consisting of amino acids of positions 1 to 13 of dynorphin A; experiment: turbidity, OD550
T1 sequence (peptide): YGGFLRRIRPKLK

[2] = target: T2, fragment of ITIH4 (positions 611 to 642); experiment: turbidity (OD550), Hill plot analysis
T2 sequence (peptide): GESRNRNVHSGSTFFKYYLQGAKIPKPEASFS

[3] = target: T3, fragment of kininogen (positions 439 to 457); experiment: turbidity (OD550), Hill plot analysis
T3 sequence (peptide): HNLGHGHKHERDQGHGHQR

[4] = target: T1, partial dynorphin A peptide consisting of amino acids of positions 1 to 13 of dynorphin A; experiment: turbidity (OD550), Hill plot analysis

- binding [1]: binds
- binding [2]: binds
- binding [3]: binds
- binding [4]: binds
Substance: Heat-denatured BSA (bovine serum albumin autoclaved for 15 minutes) (from UniProt P02769 25-607)
